Data reported in publication PMC3093395.
Results are given in words; binding and its absence hold for the method and conditions named. Binding seen in cells or lysates may run through a third protein. Here binding means that the protein was enriched with, or labelled near, the bait; the list need not be complete. For some assays here: Where a sequence is shown, tags or fusion partners need not be part of it.

Protein sequences, listed by entry. Tags and fused reporters are not part of them. Lines headed by an entry give the natural chain unless they say otherwise; changes in a name come on top.
UniProt Q07104: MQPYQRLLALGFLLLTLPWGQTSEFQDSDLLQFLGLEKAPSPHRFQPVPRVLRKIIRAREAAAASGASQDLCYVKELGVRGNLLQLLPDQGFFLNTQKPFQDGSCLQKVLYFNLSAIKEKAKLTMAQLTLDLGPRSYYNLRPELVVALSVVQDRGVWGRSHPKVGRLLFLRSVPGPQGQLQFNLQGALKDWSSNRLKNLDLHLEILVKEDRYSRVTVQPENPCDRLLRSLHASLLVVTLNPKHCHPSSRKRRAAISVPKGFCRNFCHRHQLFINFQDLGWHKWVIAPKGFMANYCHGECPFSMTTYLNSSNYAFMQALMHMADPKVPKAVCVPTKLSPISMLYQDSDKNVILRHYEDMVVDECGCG
UniProt P48432: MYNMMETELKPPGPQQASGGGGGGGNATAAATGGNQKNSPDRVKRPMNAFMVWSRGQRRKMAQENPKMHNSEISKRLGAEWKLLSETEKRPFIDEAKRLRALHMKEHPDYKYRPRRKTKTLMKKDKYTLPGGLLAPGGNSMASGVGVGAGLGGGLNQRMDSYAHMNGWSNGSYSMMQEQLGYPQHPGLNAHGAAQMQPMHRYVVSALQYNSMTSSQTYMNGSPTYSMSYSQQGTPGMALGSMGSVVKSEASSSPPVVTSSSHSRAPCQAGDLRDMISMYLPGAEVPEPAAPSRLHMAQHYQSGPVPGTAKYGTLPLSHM
UniProt Q8BX22: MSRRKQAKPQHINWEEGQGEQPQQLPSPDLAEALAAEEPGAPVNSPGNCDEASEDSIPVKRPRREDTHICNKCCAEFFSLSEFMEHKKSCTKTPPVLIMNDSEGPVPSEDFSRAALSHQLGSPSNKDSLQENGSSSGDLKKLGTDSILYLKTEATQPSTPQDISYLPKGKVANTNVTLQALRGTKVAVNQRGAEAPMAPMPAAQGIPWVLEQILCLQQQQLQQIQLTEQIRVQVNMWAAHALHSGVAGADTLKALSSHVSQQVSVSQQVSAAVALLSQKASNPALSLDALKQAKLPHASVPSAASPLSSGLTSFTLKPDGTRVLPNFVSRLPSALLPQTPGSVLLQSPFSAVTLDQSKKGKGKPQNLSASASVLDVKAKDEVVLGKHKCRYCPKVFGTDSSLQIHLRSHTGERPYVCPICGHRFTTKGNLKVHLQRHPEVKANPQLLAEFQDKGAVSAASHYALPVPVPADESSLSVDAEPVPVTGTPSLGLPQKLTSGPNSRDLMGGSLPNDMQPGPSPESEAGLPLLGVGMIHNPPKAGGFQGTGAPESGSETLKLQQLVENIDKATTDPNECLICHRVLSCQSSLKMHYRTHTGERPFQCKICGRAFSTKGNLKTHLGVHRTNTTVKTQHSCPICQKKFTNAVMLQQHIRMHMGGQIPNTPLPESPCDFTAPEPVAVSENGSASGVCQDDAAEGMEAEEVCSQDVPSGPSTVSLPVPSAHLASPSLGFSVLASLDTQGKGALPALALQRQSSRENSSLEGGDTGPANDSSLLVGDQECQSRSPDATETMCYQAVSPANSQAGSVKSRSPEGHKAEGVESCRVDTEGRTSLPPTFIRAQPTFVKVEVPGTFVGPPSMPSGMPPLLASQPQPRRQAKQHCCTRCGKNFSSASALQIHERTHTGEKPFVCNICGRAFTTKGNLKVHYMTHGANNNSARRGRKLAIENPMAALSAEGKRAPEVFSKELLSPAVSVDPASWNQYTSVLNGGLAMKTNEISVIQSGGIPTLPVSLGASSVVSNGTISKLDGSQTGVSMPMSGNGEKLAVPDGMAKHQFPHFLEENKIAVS

T1: Nanog-LAP (mouse (BAC transgene in mouse R1/E ESC)) (UniProt Q80Z64)
T1 sequence: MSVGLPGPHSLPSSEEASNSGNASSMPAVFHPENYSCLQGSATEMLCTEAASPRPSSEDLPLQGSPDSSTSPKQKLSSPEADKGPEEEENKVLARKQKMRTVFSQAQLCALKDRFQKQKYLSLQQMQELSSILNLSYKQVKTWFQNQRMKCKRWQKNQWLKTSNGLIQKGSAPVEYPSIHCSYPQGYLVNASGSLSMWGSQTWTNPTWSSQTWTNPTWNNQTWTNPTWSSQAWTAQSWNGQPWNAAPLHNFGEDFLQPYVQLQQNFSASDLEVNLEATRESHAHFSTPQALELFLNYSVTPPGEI

T2: Nanog-LAP (mouse (BAC transgene in mouse R1/E ESC)), Q80Z64
T2 chain: T1 sequence

B1: Nr0b1 (protein, UniProt Q61066 1-472)
chain: MAGEDHPWQGSILYNLLMSAKQKHASQEEREVRLGAQCWGCACGAQPVLGGERLSGGQARSLLYRCCFCGENHPRQGGILYSMLTNARQPSVATQAPRARFGAPCWGCACGSAEPLVGREGLPAGQAPSLLYRCCFCGEEHPRQGSILYSLLTSAQQTHVSREAPEAHRRGEWWQLSYCTQSVGGPEGLQSTQAMAFLYRSYVCGEEQPQQISVASGTPVSADQTPATPQEQPRAPWWDASPGVQRLITLKDPQVVCEAASAGLLKTLRFVKYLPCFQILPLDQQLVLVRSCWAPLLMLELAQDHLHFEMMEIPETNTTQEMLTTRRQETEGPEPAEPQATEQPQMVSAEAGHLLPAAAVQAIKSFFFKCWSLNIDTKEYAYLKGTVLFNPDLPGLQCVKYIEGLQWRTQQILTEHIRMMQREYQIRSAELNSALFLLRFINSDVVTELFFRPIIGAVSMDDMMLEMLCAKL
B2: Zfp281 (protein, UniProt Q99LI5 1-893)
chain: MKIGSGFLSGGGGPSSSGGSGSGGSSGSASGGSGGGRRAEMEPTFPQSMVMFNHRLPPVTSFTRPAGTAAPPPQCVLSSSTSAAPAAEPPPPPAPDMTFKKEPAASAAAFPSQRTSWGFLQSLVSIKQEKPADPEEQPSHHHHHHHHYGGLFAGAEERSPGLGGGEGGSHGVIQDLSLLHQHAQQQPAQHHRDVLLSSGSRTDEHGNQEPKQDANVKKAKRPKPESQGIKAKRKPSASSKPLVGEGEGAVLSPSQKPHICDHCSAAFRSSYHLRRHVLIHTGERPFQCSQCSMGFIQKYLLQRHEKIHSREKPFGCDQCSMKFIQKYHMERHKRTHSGEKPYKCDTCQQYFSRTDRLLKHRRTCGEAIAKGAASAEPGSSNHNSMGNLAVLSQGNTSSSRRKSKSKSIAIENKEHKTGKTNESQMSNNINMQSYSVEMPTVSTSGSIIGTGIDELQKRVPKLIFKKGSRKNADKSYLNFVSPLPDVVGQKSLSGKPGGSLGIVSNNSVETISLLQSTSGKQGPISSNYDDAMQFSKKRRYLPTASSNSAFSINVGHMVSQQSVIQSAGVSVLDNEAPLSLIDSSALNAEIKSCHDKSGIPDEVLQSILDQYSGKSETQKEDPFNLTEPRVDLHTSGEHSELVQEENLSPGTQTPSNDKTSMLQEYSKYLQQAFEKSTNAGFTLGHGFQFVSLSSPLHNHTLFPEKQIYTTSPLECGFGQSVTSVLPSSLPKPPFGMLFGSQPGLYLSALDATHQQLTPSQELDDLIDSQKNLETSSAFQSSSQKLTSQKEQQKNLESSTSFQIPSQELASQIDPQKDIEPRTTYQIENFAQAFGSQFKSGSRVPMTFITNSNGEVDHRVRTSVSDFSGYTNMMSDVSEPCSTRVKTPTSQSYR
B3: STAG1 (protein, UniProt Q9D3E6 1-1258)
chain: MITSELPVLQDSTNETTAHSDAGSELEETEVKGKRKRGRPGRPPSTNKKPRKSPGEKSRIEAGIRGAGRGRANGHPQQNGDGDPVTLFEVVKLGKSAMQSVVDDWIELYKQDRDIALLDLINFFIQCSGCRGTVRIEMFRNMQNAEIIRKMTEEFDEDSGDYPLTMPGPQWKKFRSNFCEFIGVLIRQCQYSIIYDEYMMDTVISLLTGLSDSQVRAFRHTSTLAAMKLMTALVNVALNLSIHQDNTQRQYEAERNKMIGKRANERLELLLQKRKELQENQDEIENMMNSIFKGIFVHRYRDAIAEIRAICIEEIGVWMKMYSDAFLNDSYLKYVGWTLHDRQGEVRLKCLKALQSLYTNRELFPKLELFTNRFKDRIVSMTLDKEYDVAVEAIRLVTLILHGSEEALSNEDCENVYHLVYSAHRPVAVAAGEFLHKKLFSRHDPQAEEALAKRRGRNSPNGNLIRMLVLFFLESELHEHAAYLVDSLWESSQELLKDWECMTELLLEEPVQGEEAMSDRQESALIELMVCTIRQAAEAHPPVGRGTGKRVLTAKERKTQIDDRNKLTEHFIITLPMLLSKYSADAEKVANLLQIPQYFDLEIYSTGRMEKHLDALLKQIKFVVEKHVESDVLEACSKTYSILCSEEYTIQNRVDIARSQLIDEFVDRFNHSVEDLLQEGEEADDDDIYNVLSTLKRLTSFHNAHDLTKWDLFGNCYRLLKTGIEHGAMPEQIVVQALQCSHYSILWQLVKITDGSPSKEDLLVLRKTVKSFLAVCQQCLSNVNTPVKEQAFMLLCDLLMIFSHQLMTGGREGLQPLVFNPDTGLQSELLSFVMDHVFIDQDEENQSMEGDEEDEANKIEALHKRRNLLAAFSKLIIYDIVDMHAAADIFKHYMKYYNDYGDIIKETLSKTRQIDKIQCAKTLILSLQQLFNELVQEQGPNLDRTSAHVSGIKELARRFALTFGLDQIKTREAVATLHKDGIEFAFKYQNQKGQEYPPPNLAFLEVLSEFSSKLLRQDKKTVHSYLEKFLTEQMMERREDVWLPLISYRNSLVTGGEDDRMSVNSGSSSSKTSSVRSKKGRPPLHRKRVEDESLDNTWLNRTDTMIQTPGPLPTPQLTSTVLRENSRPMGEQIQEPESEHGSEPDFLHNPQMQISWLGQPKLEDLNRKDRTGMNYMKVRAGVRHAVRGLMEEDAEPIFEDVMMSSRSQLEDMNEEFEDTMVIDLPPSRNRRERAELRPDFFDSAAIIEDDSGFGMPMF
B4: WAPL (protein, UniProt Q65Z40 1-1200)
chain: MTSRFGKTYSRKGGNGSSKFDEVFSNKRTTLSTKWGETTFMAKLGQKRPNFKPDIQEIPKKPKVEEEDTGDPFGFDSDDESLPVSSKNLAQGKGSSYSESSEAAQLEEVTSVFEANSKCSHVVGEDSFASDRCLLVEDTLIGKEKSISRIPEDNANKSSCTKLLTSDKVENFSEEHEKNSHHFHKNAEDSTKKPNAETAVASEYKADETKETNDTWNSQSGKRTESPSESCPVKGSVRTGLYEWDNDFEDIRSEDCILSLDNESLLEMKDEDLKNRIGGLENLNETFEEDIIQSVLRPSNCRTYCRANKARSSQGASNFDKLMDGTSQSLAKANSESSKDGLNQAKKGSASCGTSFRGTVGRTRDYTVLHPSCLSVCNVTIQDTMERSMDEFTASTPADLGEAGRLRKKADIATSKTTTRFRPSNTKSKKDVKLEFFGFEDHDETGGDEGGSGSSNYKIKYFGFDDLSESEDDDDDDCQVERKKDKKRTKTAPSPSQQPPPESSDNSQDSQSSTNNAENLDFTEDLPGVPESVKKPISKQGDKSKENTRKIFSGPKRSPTKAVYNARHWNHPDSEELPGPPIAKPQRVTVRLSSKEPNQKDDGVFKAPAPPLKVIKTVTIPTQPYQEIVTALKCRKEDKELYTVVQHVKHFNDVVEFGENQEFTDDIEYLLSGLKSTQPLNTRCLSVISLATKCAMPSFRMHLRAHGMVAMVFKTLDDSQHHQNLSLCTAALMYILSRDRLNMDLDRASLDLMIRLLELEQDASSAKLLNEKDMNKIKEKIRRLCETVHNKHLDLENITTGHLAMETLLSLTSKRAGDWFKEELRLLGGLDHIVDKVKECVDHLSRDDEDEEKLVASLWGAERCLRVLESVTVHNPENQSYLIAYKDSQLIISSAKALQHCEDLIQQYNRAENSICVADSNPLPYQNVTNHVGKAVEDCMRAIIGVLLNLTNDNEWGSTKTGEQEGLIGTAMNCVLQVPKYLPQEQRFDIRVLGLGLLINLVEYSARNRHCLVNMQTSCSFDSSFSSGEGDHSLRLAGQVHAVQALVQLFLERERAAQLAESKTDELIKDAPTTQHDKSGEWQETSGEIQWVSTEKTDGAEEKQKKEEEDEELDLNKALQHAGKHMEDCIVASYTALLLGCLCQESPINVTTVREYLPEGDFSIMTEMLKKFLSFMNLTCAVGTTGQKSISRVIEYLEHC
B5: Rnf2, Q9CQJ4 1-336 (protein)
chain: MSQAVQTNGTQPLSKTWELSLYELQRTPQEAITDGLEIVVSPRSLHSELMCPICLDMLKNTMTTKECLHRFCADCIITALRSGNKECPTCRKKLVSKRSLRPDPNFDALISKIYPSRDEYEAHQERVLARINKHNNQQALSHSIEEGLKIQAMNRLQRGKKQQIENGSGAEDNGDSSHCSNASTHSNQEAGPSNKRTKTSDDSGLELDNNNAAVAIDPVMDGASEIELVFRPHPTLMEKDDSAQTRYIKTSGNATVDHLSKYLAVRLALEELRSKGESNQMNLDTASEKQYTIYIATASGQFTVLNGSFSLELVSEKYWKVNKPMELYYAPTKEHK

Each molecule was assayed against T1, Nanog-LAP (mouse (BAC transgene in mouse R1/E ESC)) (assay: affinity purification with mass spectrometry; immunoprecipitation of LAP-tagged Nanog from nuclear extracts of Nanog-LAP ESC, wildtype ESC as control; shotgun mass spectrometry). Conditions: not given.

Molecule | binding
Gdf3 (from UniProt Q07104) | binds
Sox2 (from UniProt P48432 1-319) | binds
Sall4 (from UniProt Q8BX22 1-1067) | binds
B1 | binds
B2 | binds
B3 | binds
B4 | binds

Biological target: T2, Nanog-LAP (mouse (BAC transgene in …))
Experiment: as above
Conditions: remark: other sources report otherwise

Molecule | binding
B5 | binds
